# Measured values: the supplement of paper PMC11006884
# By UniProt entry, the sequences of proteins in these tests, tags left out. Where a name states a change or a piece, a line headed by the entry shows the natural chain unless it says otherwise.
# UniProt P11413, whole entry, looked up: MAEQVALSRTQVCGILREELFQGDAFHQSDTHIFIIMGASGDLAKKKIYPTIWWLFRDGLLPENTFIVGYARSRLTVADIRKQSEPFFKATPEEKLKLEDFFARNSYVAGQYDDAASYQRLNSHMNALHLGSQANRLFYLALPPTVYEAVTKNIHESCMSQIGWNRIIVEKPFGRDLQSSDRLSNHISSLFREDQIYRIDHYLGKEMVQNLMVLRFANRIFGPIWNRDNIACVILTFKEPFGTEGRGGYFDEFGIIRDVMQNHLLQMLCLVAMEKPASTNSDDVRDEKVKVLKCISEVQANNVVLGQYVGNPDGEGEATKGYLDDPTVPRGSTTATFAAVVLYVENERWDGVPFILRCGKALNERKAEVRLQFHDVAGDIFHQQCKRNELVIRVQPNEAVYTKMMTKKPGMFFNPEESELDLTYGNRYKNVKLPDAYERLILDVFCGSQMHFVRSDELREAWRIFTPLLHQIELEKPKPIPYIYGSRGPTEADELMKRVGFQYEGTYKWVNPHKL
# UniProt P14625, whole entry, looked up: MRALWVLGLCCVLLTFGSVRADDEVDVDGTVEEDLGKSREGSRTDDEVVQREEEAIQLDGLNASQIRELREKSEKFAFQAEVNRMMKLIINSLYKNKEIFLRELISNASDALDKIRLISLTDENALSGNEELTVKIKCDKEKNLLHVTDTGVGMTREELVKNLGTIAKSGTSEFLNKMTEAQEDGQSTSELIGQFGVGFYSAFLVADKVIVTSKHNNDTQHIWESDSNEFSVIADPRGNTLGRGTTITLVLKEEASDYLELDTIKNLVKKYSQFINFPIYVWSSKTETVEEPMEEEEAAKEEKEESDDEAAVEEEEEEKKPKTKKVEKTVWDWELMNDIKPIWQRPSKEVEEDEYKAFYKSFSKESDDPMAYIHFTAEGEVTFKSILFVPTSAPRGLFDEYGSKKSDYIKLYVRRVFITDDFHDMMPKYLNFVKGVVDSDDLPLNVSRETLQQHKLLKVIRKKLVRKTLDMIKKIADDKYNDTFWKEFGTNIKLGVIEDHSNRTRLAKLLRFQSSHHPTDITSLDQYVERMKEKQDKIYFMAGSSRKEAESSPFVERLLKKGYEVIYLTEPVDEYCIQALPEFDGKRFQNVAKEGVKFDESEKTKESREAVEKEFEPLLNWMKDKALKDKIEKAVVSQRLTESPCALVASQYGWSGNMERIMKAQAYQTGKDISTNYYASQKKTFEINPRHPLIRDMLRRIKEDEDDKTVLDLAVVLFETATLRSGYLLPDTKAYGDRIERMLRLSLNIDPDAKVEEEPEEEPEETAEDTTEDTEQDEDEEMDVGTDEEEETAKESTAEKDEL
# UniProt P13489: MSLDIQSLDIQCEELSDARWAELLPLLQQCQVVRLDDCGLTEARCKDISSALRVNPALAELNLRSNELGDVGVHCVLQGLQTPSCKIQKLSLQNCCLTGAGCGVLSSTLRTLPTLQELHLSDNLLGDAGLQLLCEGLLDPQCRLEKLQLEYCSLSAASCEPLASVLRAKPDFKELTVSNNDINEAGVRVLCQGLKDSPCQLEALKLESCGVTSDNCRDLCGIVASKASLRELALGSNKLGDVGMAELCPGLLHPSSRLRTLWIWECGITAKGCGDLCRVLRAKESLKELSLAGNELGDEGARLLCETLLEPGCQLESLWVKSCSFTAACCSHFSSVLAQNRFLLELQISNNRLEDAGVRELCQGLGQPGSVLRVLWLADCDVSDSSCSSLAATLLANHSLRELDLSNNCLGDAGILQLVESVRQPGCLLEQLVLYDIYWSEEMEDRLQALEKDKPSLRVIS
# UniProt P11586, whole entry, looked up: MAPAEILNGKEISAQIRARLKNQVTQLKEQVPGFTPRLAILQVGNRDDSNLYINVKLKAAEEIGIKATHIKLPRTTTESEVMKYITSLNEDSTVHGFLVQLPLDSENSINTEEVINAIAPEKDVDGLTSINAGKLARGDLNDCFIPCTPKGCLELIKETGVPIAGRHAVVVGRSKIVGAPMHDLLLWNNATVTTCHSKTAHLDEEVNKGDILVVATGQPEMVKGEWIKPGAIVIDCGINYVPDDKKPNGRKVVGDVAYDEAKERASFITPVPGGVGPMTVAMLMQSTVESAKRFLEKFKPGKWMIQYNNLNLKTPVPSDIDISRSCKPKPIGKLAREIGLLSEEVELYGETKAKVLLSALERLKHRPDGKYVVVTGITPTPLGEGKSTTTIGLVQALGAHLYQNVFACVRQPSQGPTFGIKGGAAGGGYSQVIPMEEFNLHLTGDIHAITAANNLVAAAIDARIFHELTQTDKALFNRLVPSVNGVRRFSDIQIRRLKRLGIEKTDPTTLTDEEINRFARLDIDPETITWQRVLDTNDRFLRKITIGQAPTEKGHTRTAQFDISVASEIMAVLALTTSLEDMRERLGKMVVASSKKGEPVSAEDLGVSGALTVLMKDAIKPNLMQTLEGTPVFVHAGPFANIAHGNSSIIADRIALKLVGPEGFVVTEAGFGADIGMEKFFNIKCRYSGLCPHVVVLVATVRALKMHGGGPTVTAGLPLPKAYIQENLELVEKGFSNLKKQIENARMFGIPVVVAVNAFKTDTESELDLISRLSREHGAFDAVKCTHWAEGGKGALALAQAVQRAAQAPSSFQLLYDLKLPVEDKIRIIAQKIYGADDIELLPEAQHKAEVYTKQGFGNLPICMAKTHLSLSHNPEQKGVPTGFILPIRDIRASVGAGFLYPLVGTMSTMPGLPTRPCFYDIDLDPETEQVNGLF
# UniProt P15924: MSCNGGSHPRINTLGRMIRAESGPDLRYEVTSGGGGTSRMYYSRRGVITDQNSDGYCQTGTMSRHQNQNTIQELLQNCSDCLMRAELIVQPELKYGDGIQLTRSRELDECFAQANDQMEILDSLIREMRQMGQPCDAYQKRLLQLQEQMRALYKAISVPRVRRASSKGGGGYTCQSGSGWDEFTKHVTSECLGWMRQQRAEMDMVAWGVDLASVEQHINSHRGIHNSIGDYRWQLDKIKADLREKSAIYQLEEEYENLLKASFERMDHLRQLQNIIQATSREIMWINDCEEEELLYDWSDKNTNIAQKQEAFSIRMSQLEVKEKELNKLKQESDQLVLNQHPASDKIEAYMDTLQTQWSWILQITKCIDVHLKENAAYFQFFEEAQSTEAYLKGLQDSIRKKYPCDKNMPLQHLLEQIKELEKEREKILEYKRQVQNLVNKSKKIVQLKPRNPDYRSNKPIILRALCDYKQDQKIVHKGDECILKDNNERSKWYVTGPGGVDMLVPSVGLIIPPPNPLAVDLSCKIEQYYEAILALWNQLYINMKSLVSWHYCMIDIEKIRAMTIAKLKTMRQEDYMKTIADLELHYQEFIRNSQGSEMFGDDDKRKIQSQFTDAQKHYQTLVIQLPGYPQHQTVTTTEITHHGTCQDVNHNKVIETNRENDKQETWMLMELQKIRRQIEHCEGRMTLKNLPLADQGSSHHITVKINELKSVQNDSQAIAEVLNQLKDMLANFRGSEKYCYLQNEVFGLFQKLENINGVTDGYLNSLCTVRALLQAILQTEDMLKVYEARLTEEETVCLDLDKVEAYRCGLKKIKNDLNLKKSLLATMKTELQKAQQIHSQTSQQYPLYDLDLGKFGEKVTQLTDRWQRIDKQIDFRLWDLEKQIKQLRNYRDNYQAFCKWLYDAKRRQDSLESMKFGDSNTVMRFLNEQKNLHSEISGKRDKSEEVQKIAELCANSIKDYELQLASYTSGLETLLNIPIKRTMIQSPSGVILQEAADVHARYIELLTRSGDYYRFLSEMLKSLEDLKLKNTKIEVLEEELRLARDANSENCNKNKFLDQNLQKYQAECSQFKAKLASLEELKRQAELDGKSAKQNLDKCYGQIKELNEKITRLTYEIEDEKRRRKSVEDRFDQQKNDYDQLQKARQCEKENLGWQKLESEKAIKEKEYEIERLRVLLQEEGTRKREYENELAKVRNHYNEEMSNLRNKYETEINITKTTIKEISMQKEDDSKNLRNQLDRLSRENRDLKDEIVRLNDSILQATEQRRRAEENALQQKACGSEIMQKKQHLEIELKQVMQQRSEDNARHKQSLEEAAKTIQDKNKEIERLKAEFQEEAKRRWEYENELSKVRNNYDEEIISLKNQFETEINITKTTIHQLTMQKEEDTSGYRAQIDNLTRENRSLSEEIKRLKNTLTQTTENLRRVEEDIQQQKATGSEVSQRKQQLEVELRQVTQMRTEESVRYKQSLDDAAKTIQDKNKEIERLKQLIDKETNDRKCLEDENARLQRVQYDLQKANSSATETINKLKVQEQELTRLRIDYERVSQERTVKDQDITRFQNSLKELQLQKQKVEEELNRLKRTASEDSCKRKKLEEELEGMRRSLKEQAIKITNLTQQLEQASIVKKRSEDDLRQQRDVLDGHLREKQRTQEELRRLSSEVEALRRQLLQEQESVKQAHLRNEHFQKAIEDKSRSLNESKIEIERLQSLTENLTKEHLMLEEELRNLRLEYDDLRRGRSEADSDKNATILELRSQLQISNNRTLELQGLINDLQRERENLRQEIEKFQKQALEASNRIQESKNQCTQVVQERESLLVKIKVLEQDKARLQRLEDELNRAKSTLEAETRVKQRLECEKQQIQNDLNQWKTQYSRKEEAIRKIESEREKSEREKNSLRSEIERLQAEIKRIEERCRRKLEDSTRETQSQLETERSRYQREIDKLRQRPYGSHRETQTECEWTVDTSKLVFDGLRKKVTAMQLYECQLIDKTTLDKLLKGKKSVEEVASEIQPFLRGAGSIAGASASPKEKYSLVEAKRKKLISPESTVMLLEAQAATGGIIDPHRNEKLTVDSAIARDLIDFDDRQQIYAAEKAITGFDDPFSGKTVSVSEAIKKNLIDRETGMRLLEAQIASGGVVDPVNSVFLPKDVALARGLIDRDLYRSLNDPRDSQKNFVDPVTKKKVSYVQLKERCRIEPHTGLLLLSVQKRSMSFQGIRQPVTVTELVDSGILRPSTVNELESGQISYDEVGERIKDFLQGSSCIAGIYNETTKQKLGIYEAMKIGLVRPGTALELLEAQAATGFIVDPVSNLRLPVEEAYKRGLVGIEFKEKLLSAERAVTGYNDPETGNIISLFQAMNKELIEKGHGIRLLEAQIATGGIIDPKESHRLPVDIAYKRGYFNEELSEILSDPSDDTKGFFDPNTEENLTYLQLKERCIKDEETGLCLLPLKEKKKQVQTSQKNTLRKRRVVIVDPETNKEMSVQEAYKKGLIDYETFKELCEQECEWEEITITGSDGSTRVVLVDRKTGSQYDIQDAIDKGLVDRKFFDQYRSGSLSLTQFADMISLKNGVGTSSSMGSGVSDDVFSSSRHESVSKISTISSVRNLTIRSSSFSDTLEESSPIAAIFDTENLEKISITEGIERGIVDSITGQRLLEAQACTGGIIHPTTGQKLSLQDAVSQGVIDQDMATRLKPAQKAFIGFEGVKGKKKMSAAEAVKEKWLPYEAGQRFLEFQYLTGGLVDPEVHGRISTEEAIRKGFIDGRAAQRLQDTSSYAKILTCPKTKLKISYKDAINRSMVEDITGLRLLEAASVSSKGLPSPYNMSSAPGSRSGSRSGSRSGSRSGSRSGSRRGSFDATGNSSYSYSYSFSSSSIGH
# UniProt P08240: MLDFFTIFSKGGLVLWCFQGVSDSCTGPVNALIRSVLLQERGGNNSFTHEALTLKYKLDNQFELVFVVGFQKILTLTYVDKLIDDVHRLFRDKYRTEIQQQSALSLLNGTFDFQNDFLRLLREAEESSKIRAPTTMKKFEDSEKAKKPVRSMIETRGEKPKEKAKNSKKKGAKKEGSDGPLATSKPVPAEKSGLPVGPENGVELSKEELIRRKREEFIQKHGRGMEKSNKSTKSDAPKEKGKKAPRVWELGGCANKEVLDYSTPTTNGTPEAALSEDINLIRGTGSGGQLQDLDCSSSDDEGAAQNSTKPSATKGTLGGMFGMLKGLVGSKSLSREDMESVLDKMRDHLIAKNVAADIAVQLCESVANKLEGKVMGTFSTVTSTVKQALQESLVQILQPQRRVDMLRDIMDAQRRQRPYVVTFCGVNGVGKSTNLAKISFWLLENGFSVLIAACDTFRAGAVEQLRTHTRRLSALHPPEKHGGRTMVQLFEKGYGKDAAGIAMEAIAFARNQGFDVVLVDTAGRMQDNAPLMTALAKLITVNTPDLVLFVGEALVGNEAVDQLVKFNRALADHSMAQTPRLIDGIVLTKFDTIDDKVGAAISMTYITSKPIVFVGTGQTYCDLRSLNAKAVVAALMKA
# UniProt P15104, whole entry: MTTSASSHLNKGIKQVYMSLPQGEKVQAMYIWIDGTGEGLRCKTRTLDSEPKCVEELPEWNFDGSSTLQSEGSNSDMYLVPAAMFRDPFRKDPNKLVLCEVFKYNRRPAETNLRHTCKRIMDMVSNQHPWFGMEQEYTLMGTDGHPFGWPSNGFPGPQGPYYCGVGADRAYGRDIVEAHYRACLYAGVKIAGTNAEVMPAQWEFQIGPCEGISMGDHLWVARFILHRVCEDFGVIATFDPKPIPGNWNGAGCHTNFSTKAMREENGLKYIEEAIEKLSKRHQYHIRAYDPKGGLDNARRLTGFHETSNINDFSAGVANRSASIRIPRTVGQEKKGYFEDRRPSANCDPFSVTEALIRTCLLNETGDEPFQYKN
# This is a selection; strong and weak results do not stand in their true shares.
# Compound: COC(=O)C#Cc1ccccc1 [methyl 3-phenylpropiolate]
# Experiment: log2 ratio of iodoacetamide-alkyne labeling of the cysteine site, DMSO over compound (competition); higher = stronger covalent engagement of the cysteine by the compound, active = 1 or more
# Details: 500 µM; treatment time 1 h; system: HEK293T cell lysate
# Outline: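 HEK293T lysate at 2 mg/mL was treated with vehicle or electrophile (500 µM) for 1 h at ambient temperature, then labelled with iodoacetamide alkyne (1 h), clicked to sCIP-TMT reagents, pooled, digested with trypsin overnight at 37 °C, enriched on streptavidin and eluted with acid. Peptides were analysed by Orbitrap Eclipse LC-MS/MS with FAIMS and quantified in FragPipe, using duplicate channels and three replicates, with cysteines quantified in only one replicate excluded. The log2 competition ratio for each cysteine is the mean control-channel reporter intensity divided by the mean compound-channel reporter intensity.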
row,Target,log2 ratio of iodoacetamide-alkyne labeling
1,DARS C203 (UniProt P14868),inactive: 0.147
2,PABPC1 C339 (UniProt P11940),inactive: 0.267
3,G6PD C446 (UniProt P11413),inactive: -0.0338
4,ARAF C597 (UniProt P10398),inactive: 0.904
5,ASNS C255 (UniProt P08243),inactive: -0.158
6,ASNS C158 (UniProt P08243),inactive: -0.266
7,HSP90AA1 C598 (UniProt P07900),inactive: -0.0866
8,HSP90B1 C576 (UniProt P14625),inactive: 0.0628
9,NME1 C145 (UniProt P15531),inactive: -0.0228
10,IDE C974 (UniProt P14735),inactive: 0.815
11,U2AF1L5 C102 (UniProt P0DN76),inactive: 0.445
12,RNH1 C96 (UniProt P13489),inactive: 0.119
13,XRCC5 C339 (UniProt P13010),inactive: 0.156
14,MTHFD1 C408 (UniProt P11586),inactive: -0.04
15,PARP1 C24 (UniProt P09874),inactive: 0.227
16,ACAA1 C87 (UniProt P09110),inactive: 0.141
17,EEF2 C290 (UniProt P13639),inactive: 0.0608
18,PFKM C351 (UniProt P08237),inactive: -0.0115
19,RNH1 C30 (UniProt P13489),inactive: 0.06

# 10 entries from above, reformatted.
row	Target	log2 ratio of iodoacetamide-alkyne labeling
10	IDE C974 (UniProt P14735)	inactive: 0.815
11	U2AF1L5 C102 (UniProt P0DN76)	inactive: 0.445
12	RNH1 C96 (UniProt P13489)	inactive: 0.119
13	XRCC5 C339 (UniProt P13010)	inactive: 0.156
14	MTHFD1 C408 (UniProt P11586)	inactive: -0.04
15	PARP1 C24 (UniProt P09874)	inactive: 0.227
16	ACAA1 C87 (UniProt P09110)	inactive: 0.141
17	EEF2 C290 (UniProt P13639)	inactive: 0.0608
18	PFKM C351 (UniProt P08237)	inactive: -0.0115
19	RNH1 C30 (UniProt P13489)	inactive: 0.06

# More entries:

row,Target,log2 ratio of iodoacetamide-alkyne labeling
1,CAPN2 C39 (UniProt P17655),inactive: -0.194
2,DSP C1069 (UniProt P15924),inactive: 0.596
3,UniProt P08134_C107,inactive: -0.0351
4,HSP90AA1 C572 (UniProt P07900),inactive: 0.166
5,ACTN1 C774 (UniProt P12814),inactive: 0.0974
6,EEF2 C591 (UniProt P13639),inactive: 0.128
7,HSPD1 C447 (UniProt P10809),inactive: 0.203
8,SNRPB C19 (UniProt P14678),inactive: 0.238
9,HMGB1 C23 (UniProt P09429),inactive: 0.00505
10,DSP C3 (UniProt P15924),active: 1.14
11,MTHFD1 C691 (UniProt P11586),inactive: 0.242
12,PABPC1 C132 (UniProt P11940),inactive: 0.0505
13,DSP C110 (UniProt P15924),inactive: -0.0621
14,RPS2 C182 (UniProt P15880),inactive: 0.0331
15,RPS2 C222 (UniProt P15880),inactive: 0.255
16,UniProt P08240_C424,inactive: 0.273
17,GLUL C359 (UniProt P15104),inactive: 0.402
18,HSP90AA1 C374 (UniProt P07900),inactive: -0.0415
